Data source: PubChem BioAssay AID504791 (Drosophila RNAi Screening Center, 2011)
In all, the deposit lists about 23,000 reagents; shown is an unselected part of those with a known target gene and a result. Over the whole deposit, 199 (0.86%) got an active call. 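Plate-scaled ratios behind the calls are not deposited; printed light signals are raw; many rows marked increased or decreased are still called inactive.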 Reagents against one gene are numbered here.

Assay: 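Factors in Argonaute-based small RNA production and activity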 (primary screen)
Cells: Drosophila S2-derived reporter cells
Knock-down reagent: long dsRNA against Drosophila genes, about 150-250 ng dsRNA per well (siRNA assay); about 80-120 ng (miRNA assay)
Duration: about 5 days (siRNA assay); about 4 days (miRNA assay)
Conditions: copper sulfate induction of reporters: 25 µM (siRNA assay); 200 mM stated (miRNA assay), 1-2 days before reading
Measured: 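Per-well ratio of Renilla over firefly light, expressed relative to that plate's average ratio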
Scale: siRNA reporter hit score: higher = 3 marks a strong hit with raised ratio; -3 a strong hit with lowered ratio
Hit rule: 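a well was a first-pass pick when its plate-scaled ratio rose above 1.5 (siRNA assay) or 1.6 (miRNA assay), or dropped below 0.6; a gene counted only if two separate dsRNAs agreed on retest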

gene	dsRNA no.	siRNA reporter hit score	stable siRNA reporter change	miRNA reporter change	stable assay Renilla, run 1 (luminescence)	stable assay firefly, run 1 (luminescence)	call
CG6325	1				8757	3.76e5	inactive
CG32590	1				5919	4.35e5	inactive
Roc1a	1				6758	6.18e5	inactive
Amun	1				3899	3.83e5	inactive
AIMP3	1				7166	5.22e5	inactive
borr	1				5687	5.38e5	inactive
CG32687	1				5563	4.43e5	inactive
CG32687	2				6200	4.30e5	inactive
CG6686	1				20539	7.31e5	inactive
CG6686	2			reporter ratio raised past the hit cutoff			inactive
snk	1				7543	4.50e5	inactive
CG2691	1				8620	5.31e5	inactive
CG9801	1				7450	4.39e5	inactive
CG6034	1				7748	4.79e5	inactive
Polr3B	1				8929	5.82e5	inactive
CG3740	1				7123	3.46e5	inactive
Atf3	1				5386	2.62e5	inactive
Atf3	2				4356	3.03e5	inactive
Noc1	1				7836	4.35e5	inactive
CG1806	1				7059	3.84e5	inactive
CG30269	1				6612	4.47e5	inactive
CG4301	1				5551	4.38e5	inactive
CG13870	1				6579	3.99e5	inactive
CG13540	1				6260	5.21e5	inactive
stan	1				5759	3.27e5	inactive
stan	2				6010	2.83e5	inactive
CG31845 (retired record)	1				9996	6.57e5	inactive
CG31845 (retired record)	2				4835	4.17e5	inactive
Nnk	1				7672	3.49e5	inactive
RnrS	1				7139	4.15e5	inactive
HPS4	1				7232	3.37e5	inactive
Zip89B	1				8563	4.64e5	inactive
CG34355	1				6040	3.90e5	inactive
CG34355	2				6095	3.35e5	inactive
CG34355	3				6535	3.51e5	inactive
CG34355	4				7800	3.92e5	inactive
trp	1				7074	3.10e5	inactive
CG3655	1				8359	4.14e5	inactive
CG3655	2				6519	3.40e5	inactive
CG3655	3				6264	3.64e5	inactive
CG3655	4				5327	4.95e5	inactive
Obp69a	1				6834	4.55e5	inactive
Spn27A	1				7150	3.87e5	inactive
CG10700	1				8480	5.15e5	inactive
pkm	1				7327	4.87e5	inactive
CG16799	1				5551	3.96e5	inactive
CG16799	2				9248	4.29e5	inactive
Snoo	1				4223	3.30e5	inactive
Snoo	2				83904	2.13e5	inactive
Snoo	3				6650	3.32e5	inactive
CG13970	1				6559	3.26e5	inactive
CG11374	1				7623	4.42e5	inactive
Phb2	1				4119	5.18e5	inactive
CycE	1				8433	1.73e6	inactive
CycE	2		reporter ratio lowered past the hit cutoff		4423	5.53e5	active
VhaAC45	1				8454	6.27e5	inactive
CG13449	1				7300	4.38e5	inactive
CG30268	1				9526	8.47e5	inactive
CTCF	1				8367	3.93e5	inactive
CG31275	1				7861	4.79e5	inactive
hfp	1			reporter ratio lowered past the hit cutoff	5939	4.68e5	inactive
hfp	2				5867	4.51e5	inactive
hfp	3				3999	3.71e5	inactive
hfp	4			reporter ratio lowered past the hit cutoff			inactive
LysS	1				6278	3.07e5	inactive
Prosalpha6	1		reporter ratio raised past the hit cutoff		7640	2.26e5	active
meng	1				9860	4.96e5	inactive
Sidpn	1				7338	1.50e6	inactive
CG4650	1				7837	4.60e5	inactive
CG6052	1				7998	4.29e5	inactive
Pfrx	1				5607	3.56e5	inactive
Pfrx	2				5408	4.03e5	inactive
Jhbp5	1				6935	3.43e5	inactive
SMC5	1				9202	4.11e5	inactive
SerRS	1				8071	1.79e5	inactive
CG17928	1				6731	4.27e5	inactive
CG8086	1				11469	4.66e5	inactive
CG8086	2				7655	3.64e5	inactive
TER94	1				5042	2.70e5	inactive
Mdr50	1				8247	3.85e5	inactive
VhaPPA1-1	1				7618	4.79e5	inactive
CG14177 (retired record)	1				3384	3.46e5	inactive
CG13912	1	3			5722	3.51e5	inactive

Records listed so far whose gene name starts with M or m (2):
gene	dsRNA no.	siRNA reporter hit score	stable siRNA reporter change	miRNA reporter change	stable assay Renilla, run 1 (luminescence)	stable assay firefly, run 1 (luminescence)	call
meng	1				9860	4.96e5	inactive
Mdr50	1				8247	3.85e5	inactive
